From PubChem BioAssay AID2685 (National Center for Advancing Translational Sciences (NCATS), 2010)
Some of the results follow. Further columns of the screen follow, without active or inactive calls. Most of these compounds were active or inconclusive in the main read-out, so they are no random draw. Words in brackets tell the shape of the fitted curve; partial curves, single points and poor fits give uncertain potencies.

Test: qHTS Assay for Lipid Storage Modulators in Drosophila S3 Cells;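 on cell number change: cells counted by Cell Tracker Red CMTPX staining in the red channel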
Details: BODIPY lipid droplet fluorescence, 18-24 h; for cell number change: measured here: cell count max response, cells fed with added oleic acid
Method in brief: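 Drosophila S3 cells loaded with oleic acid (400 uM, as added) and compounds at several concentrations; lipid droplets imaged by 488-nm laser-scanning cytometry, 500–530 nm intensity and object ratio to cell channel. Percent activity normalized to 20 uM Triacsin C.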

[1] = measured here: lipid fluorescence (Fed channel) AC50, cells fed with added oleic acid
[2] = measured here: cell number channel AC50, cells fed with added oleic acid

| SMILES | AC50 [1] | cell number change [%] | AC50 [2] |
| --- | --- | --- | --- |
| Cc1cc(C)c(NC(=O)CSc2nc(=O)n3cc(C)ccc3n2)c(C)c1 | 0.13 µM [rising, full curve, poor fit] | – | – |
| O=C(Nc1cccc2cccc(NC(=O)c3ccco3)c12)c1ccco1 | 29.1 µM [rising, partial curve, poor fit] | 13.6 | – |
| N#CCCn1c(-c2nonc2NC(=O)c2ccccc2Cl)nc2ccccc21 | 1.64 µM [falling, full curve, poor fit] | -24.7 | – |
| O=C(OCCN1CCOCC1)c1ccc(O)cc1 | – | -12 | – |
| CCCCC(=O)Nc1ncc([N+](=O)[O-])s1 | 35.5 µM [falling, partial curve, poor fit] | -45.9 | 17.8 µM [falling, single point] |
| O=S(=O)(Nc1ccc(N2CCOCC2)cc1)c1ccc(Cl)s1 | 4.61 µM [rising, single point] | 46.3 | 8.2 µM [rising, partial curve, poor fit] |
| O=C1C=C(N(CCO)Cc2ccccc2)c2ccccc2C1=O | 23.1 µM [falling, single point] | – | – |
| COc1cc(CN2CCN(Cc3ccc4cc(F)ccc4n3)CC2CCO)cc(OC)c1 (stereo unspecified) | – | -7.61 | – |
| CCOC(=O)c1c(NC(=O)CN2C(=O)c3ccccc3C2=O)sc(Cc2ccc3c(c2)OCO3)c1C | 1.46 µM [rising, partial curve] | -6.41 | – |
| CC(=O)N1c2ccc(S(=O)(=O)N3CCC(C(=O)NCc4ccc(Cl)cc4)CC3)cc2CC1C (stereo unspecified) | 29.1 µM [rising, single point] | 6.93 | – |
| CCOC(=O)N1CCN(C(=O)c2ccccc2NC(=O)c2ccc(F)cc2)CC1 | 5.17 µM [falling, full curve] | – | – |
| O=C(Nc1ccccc1)c1nc[nH]c1C(=O)N1CCN(c2ccccc2)CC1 | 0.116 µM [rising, full curve, poor fit] | 1.68 | – |
| Cc1cc(-c2nnc(SCC(=O)Nc3ccccc3C)n2N)n[nH]1 | 0.517 µM [falling, single point] | -17.7 | – |
| O=C1Nc2ccccc2N2CCCC12 (stereo unspecified) | 20.6 µM [falling, single point] | -7.32 | – |
| CCCCOCCCNC(=O)Cc1ccccc1OC | – | 24.5 | – |
| COCCNC(=O)c1ccc(NS(C)(=O)=O)cc1 | 0.00731 µM [rising, full curve, poor fit] | -19.9 | – |
| Cc1cccc(-n2ncc3c2CCCC3NC(=O)CCc2cccnc2)c1C (stereo unspecified) | 29.1 µM [falling, single point] | -26.7 | – |
| CCc1cc(=O)oc2c(CN3CCN(C)CC3)c(O)c(Cl)cc12 | 0.00461 µM [falling, full curve, poor fit] | -24.5 | 3.26 µM [falling, full curve, poor fit] |
| O=[N+]([O-])c1ccc(COc2ccc(-c3[nH]ncc3-c3ccccc3)c(O)c2)cc1 | – | -33.1 | 20.6 µM [falling, single point] |

2 compounds picked at random from the list so far:

| SMILES | AC50 [1] | cell number change [%] | AC50 [2] |
| --- | --- | --- | --- |
| Cc1cccc(-n2ncc3c2CCCC3NC(=O)CCc2cccnc2)c1C (stereo unspecified) | 29.1 µM [falling, single point] | -26.7 | – |
| CCCCC(=O)Nc1ncc([N+](=O)[O-])s1 | 35.5 µM [falling, partial curve, poor fit] | -45.9 | 17.8 µM [falling, single point] |

The list continues:

| SMILES | AC50 [1] | cell number change [%] | AC50 [2] |
| --- | --- | --- | --- |
| CN(C(=O)c1ccccc1Br)C1CCS(=O)(=O)C1 (stereo unspecified) | – | -43.4 | 29.1 µM [falling, single point] |
| CC(=O)N=c1sc2c3ccccc3ccc2n1C | 0.00461 µM [rising, full curve, poor fit] | -12.4 | – |
| Cc1ccc(/C=C/C(=O)Nc2ccc(S(=O)(=O)Nc3onc(C)c3C)cc2)cc1 | – | -1.28 | – |
| Oc1c(Cl)cc(Cl)cc1CNc1nc2ccccc2[nH]1 | – | 0.587 | – |
| COc1ccc(C(=O)NC(=S)NNC(=O)CNC(=O)C2CCCCC2)cc1 | 29.1 µM [rising, single point] | 26.7 | – |
| CN(CCC#N)c1ccc(/C=C(\C#N)c2ccccn2)cc1 | 18.4 µM [falling, single point] | -10.4 | – |
| Cn1cnnc1SCC(=O)Nc1ncc(C(F)(F)F)cc1Cl | 6.51 µM [falling, partial curve, poor fit] | – | 0.206 µM [falling, full curve] |
| Cn1c(=O)c(C(=O)COC(=O)c2cc(-c3ccco3)nc3ccccc23)c(N)n(CC2CC2)c1=O | 0.517 µM [rising, partial curve, poor fit] | -1.08 | – |
| O=C(CSc1cccc[n+]1[O-])C12CC3CC(CC(C3)C1)C2 | – | 1.47 | 0.82 µM [falling, full curve, poor fit] |
| O=C(Nc1ccc(Cl)c(Cl)c1)Nc1ccc(Br)cc1F | 13 µM [falling, partial curve] | -59.9 | 20.6 µM [falling, single point] |
| COc1ccc(CN(C)CC(=O)Nc2sc3c(c2C#N)CCC3)c(OC)c1 | 29.1 µM [rising, single point] | – | – |
| CCOC(=O)C1=C(C)C2C3C(=O)N(c4cc(C)ccc4C)C(=O)C3C1(C)C1C(=O)N(c3cc(C)ccc3C)C(=O)C21 (stereo unspecified) | 29.1 µM [falling, single point] | 3.21 | – |
| COC(=O)C(C)Oc1ccc2c3c(c(=O)oc2c1)CCCCC3 (stereo unspecified) | 6.51 µM [falling, single point] | – | 4.11 µM [falling, single point] |
| CCOC(=O)CSc1nc(N)c(C#N)c(CC(C)C)c1C#N | 29.1 µM [rising, single point] | 21.2 | – |
| CCOc1ccccc1N/C(=N/c1nc(C)cc(C)n1)NC(=O)Nc1ccc(Cl)c(Cl)c1 | 29.1 µM [rising, single point] | 19.2 | – |
| Cn1cccc1C(=O)NC(=O)COC(=O)c1cc(S(=O)(=O)N2CCCCC2)ccc1Cl | 29.1 µM [falling, single point] | -36.1 | 29.1 µM [falling, single point] |
| CCN(Cc1ccccc1)C(=O)CCNS(=O)(=O)c1ccc2c(c1)CC(C)N2C(C)=O (stereo unspecified) | – | 27.2 | – |
| CN1CCC(N(C)C(=O)c2cc(=O)c3ccccc3o2)CC1 | 0.116 µM [falling, full curve, poor fit] | -8.14 | – |
| Cn1c(=O)[nH]c(=O)c2c1nc(N1CCCCCC1)n2CC(=O)c1ccccc1 | 0.00461 µM [falling, full curve, poor fit] | -11.6 | – |
